System: DIO-NASH mice
Assay: Liver transcriptomic (RNAseq) analysis, 12 weeks in DIO-NASH mice (Example 3)
Assay type: in vivo
Settings: SEMA 0.3 nmol/kg/day
Description: Male C57BL/6JRj mice were fed with the AMLN diet 35 weeks prior to study start (DIO-NASH model). Mice with biopsy confirmed steatosis (score ≥2) and fibrosis (score ≥1) were randomized into treatment groups (n=12-14 per group). Mice received either vehicles, elafibranor (10 mg/kg/day, per os), semaglutide (0.3 nmol/kg/day, SC) or both elafibranor and semaglutide for 12 weeks. Suboptimal drug doses were used in this study. To avoid SEMA-induced hypophagia, an up-titration protocol was applied during the first 3 weeks of treatment.
On the last day of treatment, plasma samples were obtained after cardiac puncture blood sampling and mice were sacrificed. The liver was rapidly excised for histology and biochemical and transcriptomic analyses.
Total RNA was isolated from mice livers using Nucleospin® 96 RNA kit (Macherey Nagel) following manufacturer's instructions. Illumina NexSeq 500 sequencing technology was used to generate RNAseq data on the livers (n=5 per group). […] The parameters used are an end minimum quality level of 25 and a minimum read length of 50. The unaligned reads were aligned to the Mus musculus mm10 reference genome using the software STAR version 2.5.3. […] Briefly, the count matrix produced by FeatureCounts was analyzed by the DESeqDataSetFromMatrix( ) function followed by the DEseq( ) function from the DESeq2 library. […]

“semaglutide: commercially available GLP-1 receptor agonist” was tested, and the “number of genes differentially modulated in the liver” value (ELA 10 mg/kg/day, adjusted p<0.01, |fold change|>1.5 (FIG. 10A-B)) was 55 genes and the “expression of lipid metabolism-related genes in the liver” value was “only modestly affected”.

Reference: patent publication US12458612B2, “Combination therapy comprising compounds of formula (I) and GLP-1 receptor agonists” (GENFIT, priority 2019, dated 2025)
